Assay results: US6699849B1, “Cyclodextrin complexes of benzodiazepines” (Cyclops, ehf., priority 1998, dated 2004)
At least one read-out could not be matched to a standard name with certainty.

Test: Phase-solubility of phenytoin in aqueous HPβCD solutions at three pH levels
Type: physicochemical
Settings: pH 10.19, drug mainly ionized, 25° C., FIG. 1

## O=C1NC(=O)C(c2ccccc2)(c2ccccc2)N1 [phenytoin, 5,5-diphenyl-2,4-imidazolidinedione]
  HPβCD solubilization (efficiency of the complexation): significant enhancement
